Test results from PMC12040169 (PLOS Biology, 2025).
Like-named read-outs stand apart in the source and are kept apart here. The list shows a part of the results.

Tested on: T1, CTL2-GFP (C. trachomatis L2/434/Bu, GFP-expressing)
T1 construct: L2/434/Bu, GFP-expressing
Design: species or system HeLa; Intracellular C. trachomatis growth in HeLa cells, bulk GFP fluorescence relative to DMSO

| Structure (SMILES) | % of control remaining (28.5 h, 10 µM; inhibitor) | % of control remaining (28.5 h, 10 µM, inhibitor) |
| --- | --- | --- |
| CC(N)Cc1cn(C)c2ccccc12 (stereo not drawn) [CBK012030C] | 125.824% |  |
| O=C1NC(=O)N(c2ccc(Cl)cc2)C(=O)/C1=C\NCCCO [CBK261648] | 100% |  |
| O=C(NN=C1CCCCC1)C(O)(c1ccccc1)c1ccccc1 [CBK261783] | 100% |  |
| CS(=O)(=O)c1ccc(-c2ccc3c(c2)CCN(C2CCN(C(=O)Oc4ccccc4)CC2)C3)cc1 [CBK169518] | 105.443% |  |
| Cc1ccccc1N1C(=O)NC(=O)/C(=C/NCCCn2ccnc2)C1=O [CBK261829] | 100% |  |
| O=C(O)c1cc(NC(=O)c2ccc3c(c2)C(=O)N(Cc2ccco2)C3=O)cc(C(=O)O)c1 [CBK267374] | 177.125% |  |
| O=C1NC(=O)C(=Cc2cc(Br)ccc2OCc2cccc(F)c2)C(=O)N1 [CBK264160] | 100% |  |
| O=P(O)(O)/C=C(\Cl)c1ccccc1 [CBK261019] | 92.1065% |  |
| CONC(=O)c1nn(Cc2ccc(C)cc2)c2ccccc12 [CBK047848] | 105.192% |  |
| Cc1cccc(CNC(Cc2ccsc2)c2nccs2)n1 (stereo not drawn) [CBK282697] | 100.389% |  |
| COC(=O)c1ccc(N2C(=O)NC(=O)/C(=C\c3ccccc3OCC(=O)O)C2=O)cc1 [CBK265459] | 100% |  |
| O=C(NC1CC1)c1nn(Cc2ccc(S(=O)(=O)N3CCCCC3)cc2)c2ccccc12 [CBK047820] | 114.258% |  |
| CCCN(CCCc1ccccc1)C1Cc2cc(OC)c(OC)cc2C1 [CBK017596C] | 128.302% |  |
| O=C(N[C@H]1CCN2C(=O)N(CCCl)C(=O)[C@@H]2C1)c1ccncc1 [CBK289551] | 112.192% |  |
| COc1ccccc1CCNCc1ccc([N+](=O)[O-])cc1 [CBK262292] | 100% |  |
| CCOc1cccc(N2C(=O)/C(=C\c3ccc(-c4ccc(C(=O)O)c(Cl)c4)o3)C(=O)NC2=S)c1 [CBK263403] | 100% |  |
| CSc1nnc(C(N)Cc2c[nH]c3ccccc23)o1 (stereo not drawn) [CBK269950C] | 137.185% |  |

Two of the compounds above, bar-delimited:
Structure (SMILES) | % of control remaining (28.5 h, 10 µM; inhibitor) | % of control remaining (28.5 h, 10 µM, inhibitor)
O=C(NC1CC1)c1nn(Cc2ccc(S(=O)(=O)N3CCCCC3)cc2)c2ccccc12 [CBK047820] | 114.258% | 
CCCN(CCCc1ccccc1)C1Cc2cc(OC)c(OC)cc2C1 [CBK017596C] | 128.302% | 

Remaining list, next part:

| Structure (SMILES) | % of control remaining (28.5 h, 10 µM; inhibitor) | % of control remaining (28.5 h, 10 µM, inhibitor) |
| --- | --- | --- |
| CCOc1ccc(N2C(=O)NC(=O)/C(=C\NCCc3c[nH]c4ccccc34)C2=O)cc1 [CBK261125] | 100% |  |
| COc1cc(C(=O)N2CCC(N3C(=O)Cc4ccccc43)CC2)ccc1C [CBK155465] | 135.064% |  |
| CN(C)[C@@H]1C[C@H](C2(c3ccccc3)OCCO2)CC[C@H]1N(C)C(=O)Cc1ccc(Cl)c(Cl)c1 [CBK016338] | 127.658% |  |
| CS(=O)(=O)c1ccc(-c2ccc3c(c2)OCCN(C2CCN(C(=O)Oc4ccccc4)CC2)C3)cc1 [CBK169259] | 118.764% |  |
| O=C1NC(=O)N(c2ccc(O)cc2)C(=O)/C1=C/c1cc(Cl)c(OCc2ccccc2)c(Cl)c1 [CBK265385] | 100% |  |
| NC(=O)C(=O)c1cn(Cc2ccccc2)c2ccccc12 [CBK288473] | 128.191% |  |
| COc1ccc(N2C(=O)/C(=C/c3cc(C)n(-c4ccc(N5CCOCC5)cc4)c3C)C(=O)NC2=S)cc1 [CBK263798] | 100% |  |
| O=P(Nc1ccc(Cl)c(Cl)c1)(Nc1ccc(Cl)c(Cl)c1)Oc1ccc(Cl)cc1 [CBK263487] | 128.864% |  |
| CCOC(=O)C1(c2ccccc2)CCN(C(=O)CCN2CCN(C)CC2)CC1 [CBK132211] | 100% |  |
| O=C(O)CCCNC(=O)C(O)(c1ccccc1)c1ccccc1 [CBK269156] | 142.02% |  |
| O=C(O)C1C2CCC(O2)C1C(=O)NC1CCCCC1 (stereo not drawn) [CBK286848] | 109.028% |  |
| CSc1ccc(CN2CCN(Cc3ccc(Br)cc3)CC2)cc1 [CBK027856] |  | 100% |
| O=[N+]([O-])c1ccc(-n2cnc3ccccc32)c([N+](=O)[O-])c1 [CBK261120] | 16.1468% |  |
| CNC(=O)Oc1ccc(C)cc1C(=O)N(C)C [CBK012319] | 115.139% |  |
| COc1ccc([C@]23CC[C@H](NC(=O)Nc4ccc(C#N)c(Cl)c4)C[C@H]2N(C)CC3)cc1OC [CBK066928T] | 105.621% |  |
| O=c1[nH]c(=S)[nH]c(O)c1CN1CCOCC1 [CBK262493] | 100% |  |
